According to paper PMC6022509:
No constants are given. Whether binding was seen depends on the method and setting. In cells and extracts the contact can be indirect. Some binding calls cover weakened binding; strength is not graded here.

Protein sequences, listed by entry. Tags and fused reporters are not part of them. Lines headed by an entry give the natural chain unless they say otherwise; changes in a name come on top.
UniProt Q09472: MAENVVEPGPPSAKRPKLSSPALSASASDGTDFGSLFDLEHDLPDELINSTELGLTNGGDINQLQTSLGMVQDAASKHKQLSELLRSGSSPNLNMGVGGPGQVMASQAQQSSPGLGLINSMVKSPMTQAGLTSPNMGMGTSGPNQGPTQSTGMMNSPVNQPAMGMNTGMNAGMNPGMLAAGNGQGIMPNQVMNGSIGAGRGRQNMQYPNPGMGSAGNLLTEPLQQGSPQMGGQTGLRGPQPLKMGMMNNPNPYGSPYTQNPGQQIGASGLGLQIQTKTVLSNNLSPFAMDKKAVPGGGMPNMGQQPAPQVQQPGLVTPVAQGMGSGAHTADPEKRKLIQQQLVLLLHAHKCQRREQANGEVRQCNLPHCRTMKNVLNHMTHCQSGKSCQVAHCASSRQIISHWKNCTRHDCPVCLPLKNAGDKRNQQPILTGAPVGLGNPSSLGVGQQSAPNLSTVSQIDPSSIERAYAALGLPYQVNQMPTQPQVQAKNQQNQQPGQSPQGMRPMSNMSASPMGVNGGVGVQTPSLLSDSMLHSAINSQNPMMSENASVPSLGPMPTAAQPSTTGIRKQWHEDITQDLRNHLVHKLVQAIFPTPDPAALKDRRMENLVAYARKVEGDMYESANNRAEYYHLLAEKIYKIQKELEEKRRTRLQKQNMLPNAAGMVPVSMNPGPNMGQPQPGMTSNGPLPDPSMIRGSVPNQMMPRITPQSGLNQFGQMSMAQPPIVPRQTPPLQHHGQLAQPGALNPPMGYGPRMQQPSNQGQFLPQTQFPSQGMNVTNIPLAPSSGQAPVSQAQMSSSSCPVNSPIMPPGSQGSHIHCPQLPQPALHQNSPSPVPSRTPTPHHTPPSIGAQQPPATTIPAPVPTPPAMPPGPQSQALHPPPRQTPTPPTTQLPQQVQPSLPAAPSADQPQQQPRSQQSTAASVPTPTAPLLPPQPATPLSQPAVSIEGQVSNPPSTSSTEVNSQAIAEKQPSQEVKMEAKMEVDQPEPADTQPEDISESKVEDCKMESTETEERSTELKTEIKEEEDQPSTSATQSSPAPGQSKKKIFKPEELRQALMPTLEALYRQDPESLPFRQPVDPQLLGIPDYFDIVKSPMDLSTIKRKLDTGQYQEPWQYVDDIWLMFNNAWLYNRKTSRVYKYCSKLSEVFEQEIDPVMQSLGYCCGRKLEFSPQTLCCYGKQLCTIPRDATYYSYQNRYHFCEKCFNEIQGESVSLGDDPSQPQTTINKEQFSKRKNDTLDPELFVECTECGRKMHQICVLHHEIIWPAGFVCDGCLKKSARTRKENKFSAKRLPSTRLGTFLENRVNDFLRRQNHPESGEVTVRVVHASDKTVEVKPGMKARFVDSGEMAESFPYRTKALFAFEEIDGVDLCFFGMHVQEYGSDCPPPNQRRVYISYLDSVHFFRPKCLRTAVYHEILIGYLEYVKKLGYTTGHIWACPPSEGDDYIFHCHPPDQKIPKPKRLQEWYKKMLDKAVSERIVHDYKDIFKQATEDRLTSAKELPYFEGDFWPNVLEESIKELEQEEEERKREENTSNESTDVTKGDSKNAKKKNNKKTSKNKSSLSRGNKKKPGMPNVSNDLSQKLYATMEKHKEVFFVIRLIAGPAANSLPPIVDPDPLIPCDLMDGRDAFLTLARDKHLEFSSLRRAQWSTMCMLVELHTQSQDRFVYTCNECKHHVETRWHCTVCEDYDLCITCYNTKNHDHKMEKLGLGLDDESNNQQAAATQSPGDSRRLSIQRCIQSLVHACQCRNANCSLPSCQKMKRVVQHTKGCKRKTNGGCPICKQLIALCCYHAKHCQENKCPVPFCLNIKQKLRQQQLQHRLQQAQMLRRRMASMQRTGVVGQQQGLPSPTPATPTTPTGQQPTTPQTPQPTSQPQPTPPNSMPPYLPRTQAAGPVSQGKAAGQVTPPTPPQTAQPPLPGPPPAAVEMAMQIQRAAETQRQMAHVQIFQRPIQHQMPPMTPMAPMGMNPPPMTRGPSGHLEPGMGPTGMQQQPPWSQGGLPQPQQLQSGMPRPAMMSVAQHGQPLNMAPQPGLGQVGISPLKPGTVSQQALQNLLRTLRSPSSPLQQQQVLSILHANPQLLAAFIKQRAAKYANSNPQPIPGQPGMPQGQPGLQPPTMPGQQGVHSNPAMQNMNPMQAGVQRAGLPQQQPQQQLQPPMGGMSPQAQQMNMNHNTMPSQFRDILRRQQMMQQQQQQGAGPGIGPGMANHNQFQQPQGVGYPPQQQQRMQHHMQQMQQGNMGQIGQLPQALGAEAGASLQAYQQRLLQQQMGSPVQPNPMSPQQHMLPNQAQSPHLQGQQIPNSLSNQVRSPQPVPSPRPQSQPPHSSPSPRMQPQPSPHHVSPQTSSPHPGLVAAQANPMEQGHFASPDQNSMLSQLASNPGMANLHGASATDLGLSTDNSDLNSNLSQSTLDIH
UniProt P10242: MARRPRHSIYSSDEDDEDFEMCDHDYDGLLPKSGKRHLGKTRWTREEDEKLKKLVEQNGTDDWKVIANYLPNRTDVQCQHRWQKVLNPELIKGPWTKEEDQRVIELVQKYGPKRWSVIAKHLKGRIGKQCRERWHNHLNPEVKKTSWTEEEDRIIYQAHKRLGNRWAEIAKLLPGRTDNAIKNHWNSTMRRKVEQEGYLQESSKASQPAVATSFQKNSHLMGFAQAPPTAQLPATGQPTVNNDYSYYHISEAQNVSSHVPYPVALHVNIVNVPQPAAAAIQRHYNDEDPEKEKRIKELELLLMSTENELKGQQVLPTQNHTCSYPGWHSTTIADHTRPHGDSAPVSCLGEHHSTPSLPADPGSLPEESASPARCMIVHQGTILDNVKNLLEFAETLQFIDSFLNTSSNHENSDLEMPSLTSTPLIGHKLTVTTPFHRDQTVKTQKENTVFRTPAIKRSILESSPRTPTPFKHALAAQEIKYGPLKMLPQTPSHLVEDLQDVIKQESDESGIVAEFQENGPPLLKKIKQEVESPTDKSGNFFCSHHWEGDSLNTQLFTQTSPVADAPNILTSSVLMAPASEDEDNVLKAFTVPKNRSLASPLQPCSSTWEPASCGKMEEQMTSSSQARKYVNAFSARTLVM

Target: p300-Myc (UniProt Q09472)
Experiment: co-IP; COS-1 cells transfected with HA-tagged c-Myb or c-Myb D152V and p300-Myc, lysed 24 h after transfection; immunoprecipitation with anti-p300 and Protein A Dynabeads, 2 h at 4 °C; western blot with anti-HA

binding	Substance
binds	full-length HA-tagged c-Myb (from UniProt P10242 1-640)
binds	full-length HA-tagged c-Myb D152V (from UniProt P10242 1-640)
